For seven molecules, T/C and survivor count results are on record in PubChem BioAssay AID212 (DTP/NCI, 2004).

Each structure is given as a SMILES string. The list does not hold the whole screen: its compounds were picked by chemical class. Other doses and runs of a compound may be missing. T/C is the treated group as % of the vehicle group. Schedules are NCI's codes, read here as Q, the interval in days (D) or hours (H), X, the number of doses. Some T/C values carry the count of animals alive at the toxicity check; where neither a count nor a note follows, no animal had died by that day. Some entries were tested several times; the results are listed from low to high. Additions like (4×) say how often a value occurs here. Some entries show no survivor count and are marked so; the dose need not have been tolerated. Some entries give survivors of the animals treated and no T/C: the source files T/C as zero there, which appears to mark a toxic dose or a test without result, not a measured value. Survivors were counted at the toxicity check; its day is shown where the source gives one, and later deaths do not show.

For this assay, the system named is BDF1 mice, colon carcinoma 38 sc, T/C %. Kind of assay: NCI In Vivo Anticancer Drug Screen. Data for tumor model Colon Carcinoma 38 (subcutaneous) in B6D2F1 (BDF1) mice. The settings on record: T/C endpoint: median tumor weight (est.), schedule: Q07DX002 (ip), higher T/C = larger tumour. On the procedure: The antitumor activity of compounds was measured in mice bearing transplantable tumors. Survival or tumor size were measured and the results are expressed as the measurement made in the treated group (T) divided by the measurement made in the vehicle treated control group (C). The tumor model used in this assay is Colon Carcinoma 38 (subcutaneous) in B6D2F1 (BDF1) mice

The mark [1] stands for this setting: dose: 12.5 mg/kg/injection, vehicle: Klucel (hydroxypropylcellulose) (HPC), evaluated on day 20.
The mark [2] stands for this setting: dose: 12.5 mg/kg/injection, vehicle: Klucel (hydroxypropylcellulose) (HPC), evaluation day not shown.
The mark [3] stands for this setting: dose: 25.0 mg/kg/injection, vehicle: Klucel (hydroxypropylcellulose) (HPC), evaluated on day 20.
Where [4] appears, read: dose: 25.0 mg/kg/injection, vehicle: Klucel (hydroxypropylcellulose) (HPC), evaluation day not shown.
Setting [5] is: dose: 50.0 mg/kg/injection, vehicle: Klucel (hydroxypropylcellulose) (HPC), evaluated on day 20.
Where [6] appears, read: dose: 50.0 mg/kg/injection, vehicle: Klucel (hydroxypropylcellulose) (HPC), evaluation day not shown.
Setting [7] is: dose: 100.0 mg/kg/injection, vehicle: Klucel (hydroxypropylcellulose) (HPC), evaluated on day 20.
Where [8] appears, read: dose: 20.0 mg/kg/injection, vehicle: Klucel (hydroxypropylcellulose) (HPC), evaluated on day 20.
Where [9] appears, read: dose: 40.0 mg/kg/injection, vehicle: Klucel (hydroxypropylcellulose) (HPC), evaluated on day 20.
Where [10] appears, read: dose: 200.0 mg/kg/injection, vehicle: Klucel (hydroxypropylcellulose) (HPC), evaluated on day 20.
Where [11] appears, read: dose: 400.0 mg/kg/injection, vehicle: Klucel (hydroxypropylcellulose) (HPC), evaluated on day 20.
Setting [12] is: dose: 800.0 mg/kg/injection, vehicle: Klucel (hydroxypropylcellulose) (HPC), evaluated on day 20.

Take `ClCCN(CCCl)c1ccccc1`: the T/C is, setting by setting: (dose: 6.25 mg/kg/injection, vehicle: Klucel (hydroxypropylcellulose) (HPC), evaluated on day 20) 63 % of control; (dose: 6.25 mg/kg/injection, vehicle: saline, evaluation day not shown) 43 % of control [survivor count not shown]; (dose: 7.5 mg/kg/injection, vehicle: Klucel (hydroxypropylcellulose) (HPC), evaluated on day 20) 113 % of control; under setting [1], 46 % of control; under setting [2], 127 % of control [survivor count not shown]; (dose: 12.5 mg/kg/injection, vehicle: saline with Tween-80, evaluation day not shown) 75 [survivor count not shown] and 149 % of control [survivor count not shown]. The T/C by setting is: (dose: 12.5 mg/kg/injection, vehicle: saline, evaluation day not shown) 48 % of control [survivor count not shown]; (dose: 15.0 mg/kg/injection, vehicle: Klucel (hydroxypropylcellulose) (HPC), evaluated on day 20) 68 and 83 % of control [9 of 10 alive on day 20]; under setting [3], 72 % of control; under setting [4], 69 % of control [survivor count not shown]; (dose: 25.0 mg/kg/injection, vehicle: saline with Tween-80, evaluation day not shown) 44 [survivor count not shown] and 108 % of control [survivor count not shown]; (dose: 25.0 mg/kg/injection, vehicle: saline, evaluation day not shown) 45 % of control [survivor count not shown]. The T/C by setting is: (dose: 30.0 mg/kg/injection, vehicle: Klucel (hydroxypropylcellulose) (HPC), evaluated on day 20) 17 [9 of 10 alive on day 20] and 85 % of control; under setting [5], 5 % of control; under setting [6], 51 % of control [survivor count not shown]; (dose: 50.0 mg/kg/injection, vehicle: saline with Tween-80, evaluation day not shown) 31 [survivor count not shown] and 47 % of control [survivor count not shown]; (dose: 50.0 mg/kg/injection, vehicle: saline, evaluation day not shown) 17 % of control [survivor count not shown]; (dose: 60.0 mg/kg/injection, vehicle: Klucel (hydroxypropylcellulose) (HPC), evaluated on day 20) 62 % of control. Besides, the T/C by setting is: under setting [7], 2 % of control [7 of 10 alive on day 20]; (dose: 100.0 mg/kg/injection, vehicle: saline with Tween-80, evaluation day not shown) 12 [survivor count not shown] and 15 % of control [survivor count not shown]; (dose: 120.0 mg/kg/injection, vehicle: Klucel (hydroxypropylcellulose) (HPC), evaluated on day 20) 10 % of control [9 of 10 alive on day 20]; (dose: 240.0 mg/kg/injection, vehicle: Klucel (hydroxypropylcellulose) (HPC), evaluated on day 20) 27 % of control [7 of 10 alive on day 20]. Further, the survivor count (dose: 200.0 mg/kg/injection, vehicle: Klucel (hydroxypropylcellulose) (HPC)) is listed as 0 of 10 on day 20.
`COc1ccc(N(CCCl)CCCl)cc1`: the T/C reads like this: under setting [2], 145 % of control [survivor count not shown]; under setting [8], 79 % of control; under setting [4], 67 % of control [survivor count not shown]; (dose: 31.25 mg/kg/injection, vehicle: Klucel (hydroxypropylcellulose) (HPC), evaluated on day 20) 102 % of control; under setting [9], 56 % of control; under setting [6], 118 % of control [survivor count not shown]. The T/C runs as follows: (dose: 62.5 mg/kg/injection, vehicle: Klucel (hydroxypropylcellulose) (HPC), evaluated on day 20) 90 % of control; (dose: 80.0 mg/kg/injection, vehicle: Klucel (hydroxypropylcellulose) (HPC), evaluated on day 20) 38 % of control; (dose: 125.0 mg/kg/injection, vehicle: Klucel (hydroxypropylcellulose) (HPC), evaluated on day 20) 45 % of control [7 of 10 alive on day 20]; (dose: 160.0 mg/kg/injection, vehicle: Klucel (hydroxypropylcellulose) (HPC), evaluated on day 20) 30 % of control [7 of 10 alive on day 20]. The survivor count is, setting by setting: (dose: 250.0 mg/kg/injection, vehicle: Klucel (hydroxypropylcellulose) (HPC)) 3 of 10 on day 20; (dose: 320.0 mg/kg/injection, vehicle: Klucel (hydroxypropylcellulose) (HPC)) 0 of 10 on day 20.
As for `N#CC(C#N)=Cc1ccc(N(CCCl)CCCl)cc1`, the T/C by setting is: under setting [5], 100 and 116 % of control; under setting [7], 64 and 82 % of control (2×); under setting [10], 38, 61 [9 of 10 alive on day 20], 75 % of control; under setting [11], 45 [9 of 10 alive on day 20], 47, 88 % of control [9 of 10 alive on day 20]; under setting [12], 7, 9, 36 % of control.
As for `O=NN(CCSCCCl)C(=O)NC1CCCCC1`, the T/C runs as follows: (dose: 6.25 mg/kg/injection, vehicle: saline with Tween-80, evaluated on day 20) 94 % of control; (dose: 12.5 mg/kg/injection, vehicle: saline with Tween-80, evaluated on day 20) 79 and 86 % of control; (dose: 25.0 mg/kg/injection, vehicle: saline with Tween-80, evaluated on day 20) 88 and 102 % of control; (dose: 50.0 mg/kg/injection, vehicle: saline with Tween-80, evaluated on day 20) 67 % of control.
For the molecule `ClCCN(CCCl)c1ccc(Oc2ccccc2)cc1`, the T/C by setting is: under setting [5], 124 % of control [9 of 10 alive on day 20]; under setting [7], 124 % of control; under setting [10], 95 % of control; under setting [11], 130 % of control; under setting [12], 77 % of control.
For the molecule `Nc1cc(N)cc(N(CCCl)CCCl)c1`, the T/C (dose: 5.0 mg/kg/injection, vehicle: Klucel (hydroxypropylcellulose) (HPC), evaluated on day 20) was 126 % of control; the T/C under setting [8] was 89 % of control; the T/C under setting [9] was 66 % of control.
`ClCCN(CCCl)c1ccc(Cl)cc1`: the T/C was 77 % of control under setting [1]; 66 % of control [9 of 10 alive on day 20] under setting [3]; 97 % of control [survivor count not shown] under setting [4]; 80 and 82 % of control under setting [5]; 197 % of control [survivor count not shown] under setting [6]; 83 and 101 % of control under setting [7]. Moreover, the T/C runs as follows: (dose: 100.0 mg/kg/injection, vehicle: Klucel (hydroxypropylcellulose) (HPC), evaluation day not shown) 129 % of control [survivor count not shown]; under setting [10], 80 and 173 % of control [9 of 10 alive on day 20]; (dose: 200.0 mg/kg/injection, vehicle: Klucel (hydroxypropylcellulose) (HPC), evaluation day not shown) 118 % of control [survivor count not shown]; under setting [11], 85 and 113 % of control; under setting [12], 151 % of control.
